# Test results: US20160272706A1
# By UniProt entry, the sequences of proteins in these tests, tags left out. Where a name states a change or a piece, a line headed by the entry shows the natural chain unless it says otherwise. Chains listed by the source or under a name are the forms on record and can include a tag or linker.
# Cynomolgus IL-13 (Q0PW92, form named): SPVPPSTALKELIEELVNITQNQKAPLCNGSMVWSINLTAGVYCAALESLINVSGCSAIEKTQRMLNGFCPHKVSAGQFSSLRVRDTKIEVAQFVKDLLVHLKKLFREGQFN
# Results are given in words; binding and its absence hold for the method and conditions named. Some entries that bind do so weakly or less than the wild type.
# B1: human IL-13 Receptorα2 (R&D systems) (receptor, UniProt Q14627 27-343, looked up)
# chain: DTEIKVNPPQDFEIVDPGYLGYLYLQWQPPLSLDHFKECTVEYELKYRNIGSETWKTIITKNLHYKDGFDLNKGIEAKIHTLLPWQCTNGSEVQSSWAETTYWISPQGIPETKVQDMDCVYYNWQYLLCSWKPGIGVLLDTNYNLFYWYEGLDHALQCVDYIKADGQNIGCRFPYLEASDYKDFYICVNGSSENKPIRSSYFTFQLQNIVKPLPPVYLTFTRESSCEIKLKWSIPLGPIPARCFDYEIEIREDDTTLVTATVENETYTLKTTNETRQLCFVVRSKVNIYCSDDGIWSEWSDKQCWEGEDLSKKTLLR
# modifications: directly labelled with Dylight650
# Molecular target: Cynomolgus IL-13 (cynomolgus) (UniProt Q0PW92)
# Experiment: HTRF receptor-ligand competition: Cynomolgus IL-13 (312.5 pM) binding to labelled human IL-13 Receptor alpha 2; receptor alpha 2 titrated as reference
binder,measurement,value
B1,binding,binds
